doi:10.1101/2024.11.04.621823
No constants are given. Whether binding was seen depends on the method and setting. Binding can be weak; no strength is given.

How the values were obtained:
[1] = biological target: HP1α chromoshadow domain (CSD; aa 110-191); experiment: ITC
[2] = biological target: HP1α chromodomain (CD; aa 18-75); experiment: ITC

| Binder | binding [1] | binding [2] |
| --- | --- | --- |
| VLRQLSRKASVKVSKTWSGT [Agno (aa 2-21)] | binds | – |
| VLRQLSRKASVKASKTWSGT [Agno V14/A (aa 2-21)] | binds | – |
| VLRQLSRKLSVKVSKTWSGT [Agno A10/L (aa 2-21)] | binds | – |
| VLRQLSRKASVKVSKTW (dimethyl-lysine at K9 (Kme2)) [AgnoK9me2 (aa 2-18)] | – | binds |
